Patent US4064228A (priority 1975, dated 1977)
Like-named read-outs stand apart in the source and are kept apart here.

Tested on: antibody raised to azomorphine conjugate (crude antisera)
Format: binding
Procedure: After 2 hours, an equal volume of a neutral, saturated ammonium sulfate solution was added. The resulting precipitates, sedimented by centrifugation at 3000 rpm for 15 minutes at 4° C, were washed once in 50% saturated ammonium sulphate solution. Each precipitate was dissolved in 0.2 ml NCS solubilizer (Amersham-Searle Corp.) and transferred to a scintillation counting vial containing 10 ml. Aquasol dispersant (New England Nuclear Corp.) and counted in a Nuclear Chicago Liquid Scintillation Spectrometer.
Cross-reactivity was computed by the method of Abraham, J. Clin. Endocrin. & Metab.

For `CN1CC[C@]23c4c5ccc(O)c4O[C@H]2[C@@H](O)C=C[C@H]3[C@H]1C5` [Morphine, morphine], the “% Inhibition of Dihydromorphine H^3 Binding” value (“% Inhibition” below) (0.75 ng unlabeled morphine added) was 51%, the “% Inhibition” value (1.0 ng unlabeled morphine added) was 59% and the “% Inhibition” value (10.0 ng unlabeled morphine added) was 95%.
